The source of these data is paper PMC7862700.

The list shows a part of the results, in another mix than the full data. At the low end of the ranking, values are background and their order means little.

The target of one assay is T1, ETS2 (UniProt P15036).
T1 sequence: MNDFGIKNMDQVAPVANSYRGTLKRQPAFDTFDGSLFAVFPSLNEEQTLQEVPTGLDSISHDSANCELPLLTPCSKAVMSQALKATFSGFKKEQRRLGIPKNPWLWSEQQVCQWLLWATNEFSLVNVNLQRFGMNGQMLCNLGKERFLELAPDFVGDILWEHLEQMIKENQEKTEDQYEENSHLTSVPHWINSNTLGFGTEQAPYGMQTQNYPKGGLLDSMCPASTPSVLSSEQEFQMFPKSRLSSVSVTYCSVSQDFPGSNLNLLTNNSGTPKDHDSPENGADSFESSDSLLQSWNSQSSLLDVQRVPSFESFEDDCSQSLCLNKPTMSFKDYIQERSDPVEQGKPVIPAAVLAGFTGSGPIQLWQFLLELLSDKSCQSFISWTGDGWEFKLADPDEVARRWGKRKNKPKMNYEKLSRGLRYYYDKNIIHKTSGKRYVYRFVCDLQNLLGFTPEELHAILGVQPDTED
As to the kind of experiment: DAPPL (digital affinity profiling via proximity ligation, sequencing). The note with it: 10 mM Tris-HCl pH 7.5, 50 mM NaCl, 1 mM DTT, 4% glycerol, room temperature, 30 min; GST-TFs on glutathione beads, 16-mer random dsDNA library, 0.1% …; high values mean tight binding; double strand, one strand shown; scale: fold enrichment (6-mer frequency, TF over GST control).
Sequence GCGTCT gave a binding signal of 1.04.

For ACCTCT, the binding signal was 1.23.

Sequence TCCGCT yielded a binding signal of 2.32.

The sequence GCTTAC returned a binding signal of 1.09.

With TCCCAG, the binding signal amounted to 0.99.

For the sequence CTGCGT, the binding signal came out at 1.15.

CGCAAA registered a binding signal of 1.06.

As for CCTCCG, the binding signal came out at 1.31.

In turn, CGATGT came in with a binding signal of 1.12.

TGAGCT gave a binding signal of 0.915.

On to TTTTAT, for which the binding signal turned out to be 1.23.

ACAGCT gave a binding signal of 1.12.

TGGACT: the binding signal amounted to 1.27.

For the sequence CGACCA, the binding signal came to 1.29.

For TAAGTT, the binding signal worked out at 1.38.

AGCGAT displayed a binding signal of 1.09.

In turn, TTACGG yielded a binding signal of 1.43.

For the sequence GCTGCT, the binding signal came out at 1.43.

CGGTTC displayed a binding signal of 1.21.

For TTCGTC, the binding signal amounted to 1.31.

For GCTCAT, the binding signal is 1.26.

In turn, TAGAAT registered a binding signal of 1.06.

On to CTCTCG, for which the binding signal came out at 1.4.

With CCAATA, the binding signal turned out to be 1.28.

In turn, GGAAAT registered a binding signal of 2.75.

In turn, CGGAAA came in with a binding signal of 2.07.

CGCGCC returned a binding signal of 0.955.

As for ATGTGG, the binding signal was 1.18.

TTTAAT gave a binding signal of 1.37.

The sequence ATACGA came in with a binding signal of 1.17.

CATGGC: the binding signal was found to be 0.98.

In turn, CAACTG came in with a binding signal of 1.13.

As for CGTAAA, the binding signal amounted to 1.14.

In turn, CACCGA registered a binding signal of 1.12.

Consider TACTAT, for which the binding signal came out at 1.37.

ATGGGC showed a binding signal of 1.28.

The sequence ACTTGG gave a binding signal of 1.16.

With ATGAAG, the binding signal is 1.06.

As for TGCCGG, the binding signal stood at 1.

Another assay deals with T2, ETV3 (UniProt P41162-2).
T2 sequence: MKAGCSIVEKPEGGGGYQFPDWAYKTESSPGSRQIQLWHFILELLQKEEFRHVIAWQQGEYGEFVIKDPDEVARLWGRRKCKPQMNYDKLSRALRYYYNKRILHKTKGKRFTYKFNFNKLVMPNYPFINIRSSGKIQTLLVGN
Described as above. The note with it: 10 mM Tris-HCl pH 7.5, 50 mM NaCl, 1 mM DTT, 4% glycerol, room temperature, 30 min; GST-TFs on glutathione beads, 16-mer random dsDNA library, 0.1% …; high values mean tight binding; double strand, one strand shown; scale: fold enrichment (6-mer frequency, TF over GST control).
Turning to TCCGCT, the binding signal is 2.44.

TCCCAG showed a binding signal of 1.07.

As to CGCAAA, the binding signal turned out to be 0.974.

Regarding TGAGCT, the binding signal is 0.988.

Sequence CGCGCC returned a binding signal of 1.09.

In turn, ATACGA displayed a binding signal of 1.11.

For CATGGC, the binding signal was found to be 1.05.

For TACTAT, the binding signal was 1.36.

Consider TGCCGG, for which the binding signal turned out to be 1.21.
